From patent US10292388B2, “Malononitrile compounds for controlling animal pests” (BASF SE, priority 2012, dated 2019)
Some results were stated once for a whole list of compounds, not compound by compound.

What was measured:
Type in all cases: in vivo
[1] = system: Mediterranean fruitfly (Ceratitis capitata); assay: Mediterranean fruitfly microtiter plate diet test; details: 2500 ppm; sprayed onto insect diet with eggs; egg and larval mortality after 5 days
[2] = system: yellow fever mosquito (Aedes aegypti); details: 2500 ppm; freshly hatched larvae in tap water; larval mortality after 2 days
Method: B.12 Yellow Fever Mosquito (Aedes aegypti)
For evaluating control of yellow fever mosquito (Aedes aegypti) the test unit consisted of 96-well-microtiter plates containing 200 μl of tap water per well and 5-15 freshly hatched A. aegypti larvae. The compounds or mixtures were formulated using a solution containing 75% water and 25% DMSO. Different concentrations of formulated compounds or mixtures were sprayed onto the insect diet at 2.5 μl, using a custom built micro atomizer, at two replications. After application, microtiter plates were incubated at 28±1° C., 80±5% relative humidity for 2 days. Larval mortality was then visually assessed.

[3] = system: Rice Brown Plant Hopper (Nilaparvata lugens); assay: Rice brown plant hopper test on sprayed rice seedlings; details: 300 ppm, adults, after 72 hours
[4] = system: Silverleaf Whitefly (Bemisia argentifolil); assay: Silverleaf whitefly test on sprayed cotton plants; details: 500 ppm, whitefly adults, 3 days after treatment
[5] = system: Red Spider Mite (Tetranychus kanzawai); assay: Red spider mite test on sprayed cowpea beans; details: 500 ppm, 72 hours after treatment
[6] = system: Tobacco Budworm (Heliothis virescens); assay: Tobacco budworm test on sprayed cotton plants; details: 2500 ppm; sprayed cotton foliage; larvae; 4 days after treatment
[7] = system: boll weevil (Anthonomus grandis); assay: Boll weevil microtiter plate diet test; details: 2500 ppm; sprayed onto insect diet with eggs; egg and larval mortality after 5 days
Method: B.9 Boll Weevil (Anthonomus grandis)
For evaluating control of boll weevil (Anthonomus grandis) the test unit consisted of 24-well-microtiter plates containing an insect diet and 20-30 A. grandis eggs. The compounds were formulated using a solution containing 75% v/v water and 25% v/v DMSO. Different concentrations of formulated compounds were sprayed onto the insect diet at 20 μl, using a custom built micro atomizer, at two replications. After application, microtiter plates were incubated at about 23±1° C. and about 50±5% relative humidity for 5 days. Egg and larval mortality was then visually assessed.

[8] = system: vetch aphid (Megoura viciae); assay: Vetch aphid test on broad bean leaf disks; details: 2500 ppm; sprayed broad bean leaf disks; adult aphids; 5 days

SMILES | mortality in comparison with untreated controls [2] | mortality in comparison with untreated controls [4] | mortality in comparison with untreated controls [7] | also measured
N#CC(C#N)(Cc1ccccc1F)c1ccccc1 [II-120] | at least 75% |  |  | mortality in comparison with untreated controls [1]: at least 75%
CCc1ccc(CC(C#N)(C#N)c2ccc(F)cc2)cc1 [II-156] | at least 75% | at least 75% |  | mortality in comparison with untreated controls [3]: at least 75%
N#CC(C#N)(Cc1ccc(F)cc1)c1ccc(Cl)cc1 [II-36] |  | at least 75% |  | 
C#Cc1ccc(CC(C#N)(C#N)c2cc(C)cc(C)c2)cc1 [II-112] | at least 75% |  |  | mortality in comparison with untreated controls [5]: at least 75%
N#CC(C#N)(Cc1ccccc1C(F)(F)F)c1ccc(F)cc1 [II-94] | at least 75% |  |  | mortality in comparison with untreated controls [5]: at least 75%
COC(=O)c1ccc(CC(C#N)(C#N)c2ccc(Cl)cc2)cc1 [II-37] |  |  |  | mortality in comparison with untreated controls [6]: at least 75%
N#CC(C#N)(Cc1ccccc1C(F)(F)F)c1ccccc1 [II-93] | at least 75% |  |  | mortality in comparison with untreated controls [3]: at least 75%; mortality in comparison with untreated controls [5]: at least 75%
N#CC(C#N)(Cc1ccccc1F)c1ccc(Cl)cc1 [II-38] |  | at least 75% |  | 
N#CC(C#N)(Cc1cccc(C(F)(F)F)c1)c1ccccc1 [II-91] | at least 75% | at least 75% | at least 75% | 
C=Cc1ccc(CC(C#N)(C#N)c2ccc(F)cc2)cc1 [II-146] |  |  | at least 75% | mortality in comparison with untreated controls [8]: at least 75%
CC(c1ccccc1C(F)(F)F)C(C#N)(C#N)c1cc(F)c(F)c(F)c1 (centres unmarked) [II-203] | at least 75% |  |  | mortality in comparison with untreated controls [8]: at least 75%
N#CC(C#N)(Cc1ccc(OC(F)(F)F)cc1)c1ccc(OC(F)(F)F)cc1 [II-26] |  |  |  | mortality in comparison with untreated controls [6]: at least 75%
COc1cccc(C(C#N)(C#N)C(C)c2ccc(C(F)(F)F)cc2)c1 (centres unmarked) [II-100] |  |  |  | mortality in comparison with untreated controls [8]: at least 75%
N#CC(C#N)(Cc1ccc(C(F)(F)F)cc1)c1ccc(OC(F)(F)F)cc1 [II-24] |  |  |  | mortality in comparison with untreated controls [6]: at least 75%
N#CC(C#N)(Cc1ccc(C(F)(F)F)cc1)c1ccc(Cl)cc1 [II-6] |  |  | at least 75% | mortality in comparison with untreated controls [8]: at least 75%
Cc1cccc(C(C#N)(C#N)C(C)c2ccc(C(F)(F)F)cc2)c1 (centres unmarked) [II-84] |  | at least 75% |  | 
Cc1cc(C)cc(CC(C#N)(C#N)c2cc(F)c(F)c(F)c2)c1 [II-181] | at least 75% |  | at least 75% | mortality in comparison with untreated controls [8]: at least 75%
N#CC(C#N)(CCc1ccc(C(F)(F)F)cc1)c1ccccc1 [IV-1] |  | at least 75% |  | 
N#CC(C#N)(Cc1ccccc1F)c1cc(F)c(F)c(F)c1 [II-194] |  |  | at least 75% | mortality in comparison with untreated controls [6]: at least 75%
Cc1ccc(CC(C#N)(C#N)c2ccccc2)cc1 [II-30] |  | at least 75% |  | 
CC(c1ccc(C(F)(F)F)cc1)C(C#N)(C#N)c1ccc(C#N)cc1 (centres unmarked) [II-89] |  |  | at least 75% | mortality in comparison with untreated controls [1]: at least 75%
N#CC(C#N)(Cc1ccccc1Cl)c1cc(F)c(F)c(F)c1 [II-193] |  |  |  | mortality in comparison with untreated controls [6]: at least 75%
Cc1cc(C)cc(C(C#N)(C#N)Cc2ccc(C(F)(F)F)cc2)c1 [II-113] |  |  |  | mortality in comparison with untreated controls [5]: at least 75%
N#Cc1ccc(CC(C#N)(C#N)c2cc(F)c(F)c(F)c2)cc1 [II-148] | at least 75% |  | at least 75% | mortality in comparison with untreated controls [1]: at least 75%
N#CC(C#N)(Cc1ccc(F)cc1F)c1ccc(Cl)cc1 [II-40] |  | at least 75% | at least 75% | 
